# In PubChem BioAssay:
# The list shows a part of the results.
# Columns and labels:
# [1] = LFS_MB_P medulloblastoma growth inhibition, cell-based, chromothripsis tumors, cisplatin or BGB combos (AID 1671449); settings: LFS_MB_P medulloblastoma cells;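 note: cells exposed for 96 hours; 0% = vehicle DMSO and 100% = killing by high DMSO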
# [2] = HDN33 neuroblastoma growth inhibition, cell-based, chromothripsis tumors, cisplatin or BGB combos (AID 1671450); settings: HDN33 neuroblastoma cells, stronger effect = higher value;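 note: cells exposed to compound for four days; 0% = vehicle DMSO and 100% = cell killing by high DMSO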
# [3] = ICB984 medulloblastoma cell growth inhibition, synergistic combos for chromothripsis tumors, cisplatin or BGB combos (AID 1671451); settings: ICB984 medulloblastoma cells, drug combinations, stronger effect = higher value;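 note: cells exposed for 96 hours before readout; 0% = vehicle DMSO and 100% = killing by high DMSO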
# [4] = LFS_MB_1R medulloblastoma cell growth inhibition, synergistic combos for chromothripsis tumors, cisplatin or BGB combos (AID 1671452); settings: LFS_MB_1R medulloblastoma cells, stronger effect = higher value;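 note: cells exposed for 96 hours before readout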
# [5] = HTB85 osteosarcoma cell growth inhibition, synergistic combos for chromothripsis tumors, BGB or cisplatin IC20 combos (AID 1671453); settings: HTB85 osteosarcoma cells, drug combinations, stronger effect = higher value;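 note: cells exposed for 96 hours before readout; 0% = vehicle DMSO and 100% = high DMSO killing control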
# [6] = CRL2098 osteosarcoma cell growth inhibition, synergistic combos for chromothripsis tumors, BGB or cisplatin IC20 combos (AID 1671454); settings: CRL2098 osteosarcoma cells, drug combinations, stronger effect = higher value;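 note: cells exposed for 96 h before readout; 0% = vehicle DMSO and 100% = killing by high DMSO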
# [7] = HD-MB03 medulloblastoma cell growth inhibition, synergistic combos for chromothripsis tumors, BGB or cisplatin IC20 combos (AID 1671455); settings: HD-MB03 medulloblastoma cells, stronger effect = higher value;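 note: 0% = vehicle DMSO and 100% = high DMSO as cytotoxic control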
# [8] = UWB1.289 ovarian carcinoma cell growth inhibition, synergistic combos for chromothripsis tumors, BGB or cisplatin combos (AID 1671456); settings: UWB1.289 ovarian carcinoma cells, at 0.05 µM, stronger effect = higher value;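 note: cells exposed to compound for four days; 0% = vehicle DMSO and 100% = killing by high DMSO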
# [9] = LFS_MB_2R medulloblastoma cell growth inhibition, synergistic combos for chromothripsis tumors, cisplatin combos (AID 1671457); settings: LFS_MB_2R medulloblastoma cells, measured here: combination with cisplatin, stronger effect = higher value;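 note: cells exposed to compound for four days before readout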
# [10] = MDA-MB-436 breast carcinoma cell growth inhibition, synergistic combos for chromothripsis tumors, BGB or cisplatin combos (AID 1671458); settings: MDA-MB-436 breast carcinoma growth inhibition, drug combinations, stronger effect = higher value;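 note: cells exposed for 96 hours; 0% = vehicle DMSO and 100% = killing by high DMSO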
# [11] = UWB1.289_BRCA1 ovarian cancer growth, cell-based, BGB or cisplatin combinations (AID 1671459); settings: UWB1.289 BRCA1 ovarian carcinoma, drug combinations, concentration series, at 5 µM, stronger effect = higher value
# [12] = human astrocyte viability loss, single and combined drugs, cytotoxicity control for chromothriptic childhood tumor combination screen, cell-based, BGB or cisplatin IC20 combos (AID 1671460); settings: Human astrocytes, drug combinations, stronger effect = higher value;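 note: cells exposed to compounds for 96 hours before viability readout; 0% = vehicle and 100% = killing control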
# [13] = growth inhibition of BT084 medulloblastoma cells, cell-based, ICGC_MB145, cisplatin and BGB IC40 combos (AID 1671461); settings: drug combinations, stronger effect = higher value;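 note: cells exposed to drugs for 96 hours; 0% = vehicle DMSO and 100% = high DMSO full killing control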
# [14] = growth inhibition of RCMB18 medulloblastoma cells, cell-based, cisplatin and BGB IC40 combos (AID 1671462); settings: stronger effect = higher value;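 note: cells exposed to compound for four days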
# [15] = growth inhibition of CRL1545 osteosarcoma cells, cell-based, cisplatin and BGB IC20 combos (AID 1671464); settings: stronger effect = higher value;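 note: cells exposed to compound for 96 hours before readout; 0% = vehicle DMSO and 100% = high DMSO killing control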
# [16] = measured here: combination with BGB IC40, at 0.05 µM
# [17] = measured here: with BGB IC20 combination, at 0.5 µM
# [18] = measured here: with cisplatin IC20 combination, at 0.5 µM
# [19] = measured here: combination with cisplatin, at 0.5 µM
smiles,measurement,setting,value
CN(CCCl)CCCl,inhibition,"[1]; measured here: combination with BGB IC20, at 0.005 µM",-24%
same,inhibition,"[1]; measured here: combination with BGB IC40, at 0.005 µM",-8.04%
same,inhibition,[1]; [16],-5.12%
same,inhibition,"[1]; measured here: combination with cisplatin, at 0.5 µM, stronger effect = higher value",-44.2%
same,inhibition,"[1]; measured here: combination with cisplatin, at 5 µM, stronger effect = higher value",2.66%
same,inhibition,"[2]; BGB combo, at 5 µM",52.5%
same,inhibition,"[2]; cisplatin combo, at 5 µM",21.8%
same,inhibition,[2]; [17],-16.7%
same,inhibition,[2]; [18],-26.7%
same,inhibition,"[2]; single agent, at 5 µM",21.5%
same,inhibition,"[3]; BGB IC20 combo, at 0.005 µM",-10.7%
same,inhibition,"[3]; BGB IC40 combo, at 0.005 µM",-25.4%
same,inhibition,"[3]; BGB IC40 combo, at 0.05 µM",26.9%
same,inhibition,"[3]; cisplatin combo, at 0.05 µM",24.9%
same,inhibition,"[3]; cisplatin combo, at 0.5 µM",-47.1%
same,inhibition,"[3]; cisplatin combo, at 5 µM",-39.3%
same,inhibition,"[3]; measured here: 5 uM single agent, at 5 µM",-13%
same,inhibition,[4]; [16],-55%
same,inhibition,[4]; [19],-93.7%
same,inhibition,"[4]; measured here: combination with cisplatin, at 5 µM",29.8%
same,inhibition,"[5]; measured here: with BGB IC20, at 0.5 µM",-3.48%
same,inhibition,"[5]; measured here: with BGB IC20, at 5 µM",67.5%
same,inhibition,"[5]; measured here: with cisplatin IC20, at 0.5 µM",-13.2%
same,inhibition,"[5]; measured here: with cisplatin IC20, at 5 µM",40.7%
same,inhibition,"[5]; single agent, at 5 µM",18.5%
same,inhibition,"[6]; measured here: combination with BGB at IC20, at 0.5 µM",-107%
same,inhibition,"[6]; measured here: combination with cisplatin at IC20, at 0.5 µM",-91.7%
same,inhibition,"[7]; measured here: combo with BGB at IC20, at 0.5 µM",42.6%
same,inhibition,"[7]; measured here: combo with cisplatin at IC20, at 0.5 µM",13.6%
same,inhibition,[8]; measured here: inhibition with BGB combination,-24.2%
same,inhibition,[8]; measured here: inhibition with cisplatin combination,-14.4%
same,inhibition,[9]; at 0.5 µM,-10.8%
same,inhibition,[9]; at 5 µM,-40.7%
same,inhibition,"[10]; measured here: BGB combination, at 0.5 µM",15.8%
same,inhibition,"[10]; measured here: BGB combination, at 5 µM",51.6%
same,inhibition,"[10]; measured here: cisplatin combination, at 0.5 µM",25.9%
same,inhibition,"[10]; measured here: cisplatin combination, at 5 µM",55.3%
same,inhibition,[11]; BGB combination,-2.08%
same,inhibition,[11]; cisplatin combination,9.72%
same,inhibition,"[12]; measured here: combo with BGB IC20, at 0.5 µM",8.54%
same,inhibition,"[12]; measured here: combo with cisplatin IC20, at 0.5 µM",-41.1%
same,inhibition,"[13]; cisplatin combination, at 0.5 µM",-2.91%
same,inhibition,"[13]; cisplatin combination, at 5 µM",28.5%
same,inhibition,"[13]; measured here: BGB IC40 combination 0.05 uM, at 0.05 µM",-24.5%
same,inhibition,"[13]; single agent, at 5 µM",-18.7%
same,inhibition,"[14]; cisplatin combo, at 5 µM",43.8%
same,inhibition,"[14]; measured here: BGB IC40 combination, at 0.05 µM",-4.74%
same,inhibition,[14]; [19],-54.5%
same,inhibition,"[14]; single agent, at 5 µM",-6.45%
same,inhibition,[15]; [17],-18.4%
same,inhibition,[15]; [18],-25.8%
same,inhibition,"[15]; single agent, at 0.05 µM",-88.1%
same,inhibition,"[15]; single agent, at 5 µM",61.1%
